Measured values from PubChem BioAssay AID1347075 (National Center for Advancing Translational Sciences (NCATS), 2019).
Among all 400,000 compounds or so, about 5,500 (1.4%) were called active. This list was built around the results that the source calls inconclusive (neither active nor inactive); the mix of calls is not that of the screen. The call rests on the fitted dose curve; in most records, active means well fitted cell-killing curve with a large enough effect; inconclusive means small, poorly fitted or top-dose-only effect, or effect the other way; inactive means flat fitted curve, though single readings scatter. Potencies beside an inconclusive call are fits to weak or partial responses and may not hold up.
On the % scale 0 is the no-effect control and ±100 the full control effect; potency means the concentration at half of the fitted maximal effect.

Assay: qHTS assay for MDR1-selective chemotherapeutics: Primary screen using the parental adenocarcinoma cell KB-3-1; further: nearly all actives have a fitted effect of over 60% in size
Conditions: KB-3-1 viability, CellTiter-Glo ATP luminescence, 72 h; activity change, negative = cytotoxic: at 46.1 µM (top of the series)
How it was run: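 Using CellTiter-Glo luminescence, growth of non-resistant KB-3-1 adenocarcinoma cells is assessed 72 h after pin-tool compound addition at 37 °C. Normalized responses across the concentration series yield fitted curves.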
In the case of CCOC(=O)CCCCC(=O)c1[nH]c(=O)[nH]c1Cn1cnc2ccccc21, the “activity change, negative = cytotoxic” value is reported as inactive: 2.8%.
With COc1ccc(S(=O)(=O)Nc2cc(C)ccc2OC)cc1C the Potency was inconclusive: 29.1 µM [cytotoxic, partial curve, poor fit].
In the case of N#CC(c1ccccc1)c1ccc([N+](=O)[O-])cc1 (configuration not stated), the Potency is reported as active: 20.6 µM.
With COc1ccc(/C=C2\SC(=Nc3ccccc3Cl)NC2=O)c(OC)c1 the Potency was inconclusive: 29.1 µM [cytotoxic, partial curve, poor fit].
With Cc1ccc(NC(=O)CNc2ccccc2N2CCCC2=O)cc1S(=O)(=O)N1CCCCC1 the Potency was inconclusive: 16.4 µM [cytotoxic, partial curve, poor fit].
With O=C(CNC(=O)C1(c2ccccc2)CC1)Nc1ccc(F)c(F)c1 the Potency was inconclusive: 13 µM [rising, partial curve, poor fit].
In the case of Cc1cccc(N2CCN(C(=O)c3ccc(CNc4c(N5CCC(C)CC5)c(=O)c4=O)cc3)CC2C)c1 (configuration not stated), the Potency is reported as inconclusive: 29.1 µM [cytotoxic, single point].
For COc1ccccc1C(=O)/C=C/c1ccc(N2CCCCC2)c([N+](=O)[O-])c1, the Potency was inconclusive: 20.6 µM [cytotoxic, single point].
For CC(C)Oc1ccc(-c2nc(NCC3CCCO3)c3ccccc3n2)cc1 (configuration not stated), the “activity change, negative = cytotoxic” value was inactive: 0%.
For CCc1cc2c(NCC3CCCO3)ncnc2s1 (configuration not stated), the Potency was inconclusive: 20.6 µM [cytotoxic, partial curve].
With Cc1ccc(NC(=O)COCc2cc(-c3cccs3)on2)cc1Cl the “activity change, negative = cytotoxic” value was inactive: 9.73%.
For COc1cccc(CN(C)C(=O)CC23CC4CC(CC(C4)C2)C3)c1OC, the Potency was inconclusive: 16.4 µM [cytotoxic, single point].
In the case of CC(C)=CCCC1(C)C=Cc2c(c(C)cc3c2[nH]c2cc(O)ccc23)O1 (configuration not stated), the Potency is reported as inconclusive: 29.1 µM [cytotoxic, single point].
In the case of N#CCCN(Cc1ccccc1)C(C(=O)NC1CCCCC1)c1ccnc2ccccc12 (configuration not stated), the “activity change, negative = cytotoxic” value is reported as inactive: -0.0772%.
In the case of COc1ccc(CC(=O)Nc2nc(-c3ccc(F)c(F)c3)cs2)cc1, the Potency is reported as inconclusive: 23.1 µM [cytotoxic, single point].
In the case of CCOc1ccc(S(=O)(=O)Nc2ccc(Cl)cn2)c(C)c1C, the Potency is reported as inconclusive: 16.4 µM [cytotoxic, single point].
With COc1ccc(C(=O)Nc2ccc3[nH]ccc3c2)cc1 the Potency was active: 16.4 µM.
With Cc1ccsc1/C=N/NC(=O)CNC(=O)c1cccc([N+](=O)[O-])c1C the “activity change, negative = cytotoxic” value was inactive: -8.06%.
With Cc1c(Nc2scc(-c3ccccc3)[n+]2-c2ccccc2)c(=O)n(-c2ccccc2)n1C the Potency was inconclusive: 29.1 µM [cytotoxic, single point].
With CCCc1ccc(OCc2ccc(C(=O)Nc3cccc(C)n3)o2)c(OC)c1 the Potency was inconclusive: 2.06 µM [cytotoxic, full curve, poor fit].
For COc1ccccc1-c1sc2cc3c(cc2c1C#Cc1cncn1C)OCO3, the Potency was inconclusive: 29.1 µM [cytotoxic, single point].
In the case of CC(=O)Oc1ccc(/C=C2/SC(=S)N(Cc3ccccc3)C2=O)cc1, the “activity change, negative = cytotoxic” value is reported as inactive: 2.24%.
In the case of CSc1nn(Cc2ccc(F)cc2)c(N)c1S(=O)(=O)c1ccc(Cl)cc1, the Potency is reported as inconclusive: 29.1 µM [cytotoxic, single point].
For COC(=O)CC1(C(=O)OC)Oc2ccc(Br)cc2C(=O)N1c1cc(Cl)c(Cl)cc1Cl (configuration not stated), the Potency was inconclusive: 18.4 µM [cytotoxic, single point].
In the case of COc1ccccc1NC(=O)NNC(=O)c1ccc2c(c1)NC(=O)C(C)(C)O2, the Potency is reported as inconclusive: 29.1 µM [cytotoxic, single point].
In the case of CCCn1nnnc1NC(=O)COc1ccc(Cl)cc1C, the Potency is reported as inconclusive: 20.6 µM [cytotoxic, partial curve].
With Cc1ccc(C(=O)Nc2nc(C)c(C)s2)o1 the Potency was inconclusive: 29.1 µM [cytotoxic, single point].
With CCN(CCn1cccn1)Cc1ccccc1OCC(O)CN1CCc2ccccc2C1 (configuration not stated) the Potency was inconclusive: 20.6 µM [cytotoxic, single point].
In the case of Cc1ccc(C(=O)c2cc([N+](=O)[O-])ccc2N2CCN(C)CC2)cc1, the Potency is reported as active: 5.17 µM.
In the case of COc1ccc(/C=C(\CC(=O)O)c2nc3ccccc3s2)cc1O, the “activity change, negative = cytotoxic” value is reported as inactive: -1.97%.
In the case of CC1=Nc2ccccc2/C1=C(/C)c1c(C)[nH]c2ccccc12, the Potency is reported as inconclusive: 29.1 µM [rising, partial curve, poor fit].
In the case of CCOC(=O)c1c(C)[nH]c(-c2csc(N)n2)c1C, the Potency is reported as inconclusive: 29.1 µM [cytotoxic, single point].
For Nc1cccc(Nc2nc(OC(C(F)(F)F)C(F)(F)F)nc(OC(C(F)(F)F)C(F)(F)F)n2)c1, the Potency was active: 18.4 µM.
In the case of C/C(CC(=O)NCc1ccc(F)cc1)=N\NC(N)=S, the “activity change, negative = cytotoxic” value is reported as inactive: 0.477%.
In the case of CCCC(=O)NC(c1ccc(Cl)cc1)c1ccc2cccnc2c1O (configuration not stated), the Potency is reported as inconclusive: 4.11 µM [cytotoxic, full curve].
With O=P(OC1CCCCC1)(OC1CCCCC1)C(O)c1c(Cl)cccc1Cl (configuration not stated) the Potency was inconclusive: 20.6 µM [cytotoxic, single point].
In the case of CCOc1ccc2[nH]c3c(N4CCC5(CC4)OCCO5)ncnc3c2c1, the Potency is reported as inconclusive: 29.1 µM [cytotoxic, single point].
With Cc1ccc(Cl)cc1Nc1nc(-c2sc(NC(=O)C(C)(C)C)nc2C)cs1 the Potency was inconclusive: 29.1 µM [cytotoxic, single point].
In the case of C=CCNC(=S)N/N=C/c1ccc(N(CC)Cc2ccccc2)cc1, the Potency is reported as inconclusive: 29.1 µM [cytotoxic, single point].
With COc1ccc(OC)c(NC(=O)CSC2=Nc3ccccc3C3=NC(CCC(=O)NCCc4ccccc4)C(=O)N23)c1 (configuration not stated) the Potency was inconclusive: 29.1 µM [cytotoxic, single point].
With COC(=O)c1ccc(NC(=O)CSc2n[nH]c(-c3ccncc3)n2)cc1 the Potency was inconclusive: 32.6 µM [rising, single point].
With Cc1ccc(C(=O)NCC(=O)N2CCN(S(=O)(=O)c3cccs3)CC2)s1 the Potency was inconclusive: 29.1 µM [rising, single point].
For C[C@@H]1CN([C@@H](C)CO)C(=O)c2cc(Br)cnc2O[C@H]1CN(C)C(=O)CN1CCOCC1, the “activity change, negative = cytotoxic” value was inactive: 24.2%.
In the case of CCOC(=O)C1CCN(C(=O)C2CCN(S(=O)(=O)c3ccc4c(c3)CC(C)N4C(C)=O)CC2)CC1 (configuration not stated), the “activity change, negative = cytotoxic” value is reported as inactive: -6.45%.
With Cc1ccc(-n2nc3c(c2NC(=O)c2ccc4c(c2)OCO4)CSC3)c(C)c1 the Potency was inconclusive: 0.0184 µM [cytotoxic, full curve].
With CN1C/C(=C/c2ccccc2[N+](=O)[O-])C(=O)/C(=C\c2ccccc2[N+](=O)[O-])C1 the Potency was inconclusive: 32.6 µM [rising, single point].
With CCOC(=O)N1CCN(S(=O)(=O)c2cc([N+](=O)[O-])c(C)cc2C)CC1 the Potency was inconclusive: 29.1 µM [rising, single point].
For Cc1cccc(N2CCN(C(=O)CSCc3c(C)noc3C)CC2)c1C, the Potency was active: 3.66 µM.
With O=C(CNC(=O)c1cccc(F)c1)N/N=C/c1cccc([N+](=O)[O-])c1 the activity change, negative = cytotoxic was inconclusive: 6.05%.
With CCC(c1nnnn1Cc1ccco1)N(Cc1cc2cc(OC)ccc2[nH]c1=O)C1CCCCC1 (configuration not stated) the Potency was inconclusive: 23.1 µM [cytotoxic, single point].
With CCOCCn1c2ccccc2c2nc3ccccc3nc21 the Potency was inconclusive: 29.1 µM [cytotoxic, single point].
For COc1ccc(C2C([N+](=O)[O-])=C(C)N(C)C(=O)N2C)cc1OC (configuration not stated), the Potency was inconclusive: 20.6 µM [rising, single point].
With CCOc1ccc(CNC(=S)NCc2ccc(OCC)cc2)cc1 the activity change, negative = cytotoxic was inconclusive: -5.2%.
For COC(C/C=C/C(=O)[C@@H](C)OCc1ccccc1)OC, the Potency was inconclusive: 20.6 µM [cytotoxic, partial curve, poor fit].
In the case of CN(C)CCNc1ccc2ncn3c4ccc(O)cc4c(=O)c1c23, the Potency is reported as inconclusive: 8.2 µM [cytotoxic, partial curve, poor fit].
With CCn1c2ccccc2c2cc(C3N=C(N)Nc4nc5ccccc5n43)ccc21 (configuration not stated) the “activity change, negative = cytotoxic” value was inactive: -1.82%.
In the case of CCC(C(=O)N1CCN(c2ccc(OC)cc2)CC1)n1nc(C)n2c(cc3occc32)c1=O (configuration not stated), the Potency is reported as inconclusive: 20.6 µM [cytotoxic, single point].
With c1csc(COc2ccccc2CNC2CCCCC2)c1 the Potency was inconclusive: 14.6 µM [cytotoxic, partial curve, poor fit].
With Cc1noc(/C=C/c2ccco2)c1S(=O)(=O)N1CCC(C(=O)N2CCc3ccccc3C2)CC1 the Potency was inconclusive: 18.4 µM [cytotoxic, partial curve, poor fit].
With Cc1cn(CC(=O)NCCN2CCOCC2)c(=O)[nH]c1=O the “activity change, negative = cytotoxic” value was inactive: 0%.
For FC(F)(F)c1ccc(C2[C@H]3CN(CC4CCCCC4)[C@H](c4ccccc4)C34CC2(c2cccnc2)C4)cc1 (some centres not stated), the “activity change, negative = cytotoxic” value was inactive: 5.6%.
For C=CCOc1ccc2c(c1)C(=NO)c1cc(OCC=C)ccc1-2, the Potency was inconclusive: 18.4 µM [cytotoxic, single point].
For Cn1c(-c2ccc(F)cc2)cnc1NCc1ccc(C#N)cc1, the “activity change, negative = cytotoxic” value was inactive: -8.96%.
For COc1ccc(-c2noc(CN(C)S(=O)(=O)c3ccc(Cl)cc3)n2)cc1OC, the Potency was inconclusive: 20.6 µM [cytotoxic, single point].
In the case of Cc1ccc(Nc2nc(-c3c(C)nc4ccccn34)cs2)cc1, the Potency is reported as active: 0.0206 µM.
For CCCOc1ccc(CN(CCC#N)C(=S)NC(=O)c2ccccc2)cc1, the Potency was inconclusive: 29.1 µM [cytotoxic, single point].
With CCOc1ccc(CNCc2ccccc2Cl)cc1 the activity change, negative = cytotoxic was inconclusive: -29.3%.
